From paper doi:10.1101/2025.05.13.653872
Results are given in words; binding and its absence hold for the method and conditions named. Binding seen in cells or lysates may run through a third protein. A yes stands for co-enrichment or nearness to the bait. Other partners may have been found.

B1: PA1545 hypothetical protein (protein, UniProt Q04628 1-155)
chain: MLTLSGWITTQVPPSSRAAADAKAARTGTAEQAEDPAAGTDAADQHVQLSQAGRELAATMGVPVEEEDEDIPQELRPMVKMIRELKKKIEEKLRELQEAMRSSDPGAKEARVPELQKELQQLNSALQTATAAMASAIKEMGISDPALIMKVMGSR
B2: PA1218 hypothetical protein (protein, UniProt Q9I4C0 1-292)
chain: MKHYRQVVSPQLRQQALDWILAAAQRPDPALEPEFDIADDERREAKKVRNLHRHDPLFWDDWFARSGLDALVRDHLRKPRLLRHAAFIKRHADESYIPLHQDIALWEKRYESAQTFWVALTPSRNDNGGMFYYPDDRTIFPHEFDLAYPMFKCIDLQANGISREQLVDAELDAGDVLVWPARTAHGSHNNRSGQLRIGMPIVFVEDDEFHQLNREDSMKTWIASNLKSVFPDEAITEDNLDHYLPQLCDYSLKMVTFLARFSRQFGHAPKIHDFIREPRLATLSASDAGARR
B3: PA5269 hypothetical protein (protein, UniProt Q9HTT1 1-91)
chain: MSEQDDNQEDGFAEEKLIQAIENQIESENPPAARAVFNKLTLVGYERDEALGMMAYVLAHEINAMLAADRAFDSAGYEHALRALPTLPDDE
B4: PA0805 hypothetical protein (protein, UniProt Q9I5D3 1-75)
chain: MSIQHRTQDAIRTLTAAFAPFDCLIQATRKGNFSFTIVDQHGVACHSERLYPEQYDDSGKMEEVINRVRKKTLAA
B5: PA3518 hypothetical protein (protein, UniProt Q9HY91 1-328)
chain: MNTRNFSLPQLQNLPIEEARIVADALAVHATSRQIDSAASKLAALAEAGLKGDRQAYAAYQQLLYVLSLSDDVATAQTRRWLARAIYRVEERFMPAADLSRALSEEDFQKRLEQEIAAQSRERHPMSQYVFSGSASRAQLQVFLRHQWFRTFRLYRDAADLLVNLTDVDEAAALARYLYGELGEEDEKGSHPRLLAKLLEAIGLEADFQAVSTMPEEIAYLNNRARAFRHAEVGWGLAVFYITELVVPGNHEKLYRALLQAGLSEDQAEYYKVHISLVPPRAKREWQLIARRIPDVQFQNAFLTSLSQHFRVERAYYDAIWEEMQSVK

Key:
[1] = molecular target: 3xFlag-PcrP overexpressed in P. aeruginosa ΔpcrP (P. aeruginosa PAO1) (UniProt Q9I040); assay: affinity purification with mass spectrometry; 3xFlag-PcrP overexpressed in ΔpcrP grown in BMM8 (high Pi, 580 μM) or BMMH8 (low Pi, 50 μM) at 0 or 5 mM Ca2+; lysate (1 mg/ml) on ANTI-FLAG M2 magnetic beads, 2 h at 4°C, washed with 10 mM Tris-HCl pH 7.5; LC-MS/MS; ΔpcrP as negative control
[2] = molecular target: 6xHis-PcrP overexpressed in P. aeruginosa ΔpcrP (P. aeruginosa PAO1) (UniProt Q9I040); assay: affinity purification with mass spectrometry; 6xHis-PcrP overexpressed in ΔpcrP grown in BMM8 at 0 or 5 mM Ca2+; lysate (1 mg/ml) on HisPur Ni-NTA resin, 2 h at 4°C, washed with 10 mM Tris-HCl pH 7.5; LC-MS/MS; ΔpcrP as negative control

Binder	binding [1]	binding [2]
B1	binds	binds
B2	binds	binds
B3	binds	binds
B4	binds	binds
B5	binds	binds
